Assay results taken from the supplement of paper PMC8728848.
The other results are listed elsewhere or left out.

What was measured:
Assay in all cases: glycan array binding signal (z-score within array); higher = stronger binding
Conditions in all cases: glycan notation: IUPAC condensed, linker removed
[1] = target: GlcNAc(b1-3)Gal(b1-3)GalNAc
Outline: (§1)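 Glycan array data came from 3228 arrays in the Consortium for Functional Glycomics database, and only arrays with an available protein sequence were kept. Glycan names were put into IUPAC-condensed notation, and columns mapping to the same glycan were averaged. The binding signal is a within-array Z-score, averaged across arrays of one protein sequence run at different concentrations or buffers and across linkers. A negative Z-score can be read as non-binding.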

[2] = target: GlcNAc(b1-3)Gal(b1-4)Glc
Outline: as §1

[3] = target: GlcNAc(b1-3)Gal(b1-4)GlcNAc
Outline: as §1

[4] = target: GlcNAc(b1-3)Gal(b1-4)GlcNAc(b1-2)Man(a1-3)[GlcNAc(b1-3)Gal(b1-4)GlcNAc(b1-2)Man(a1-6)]Man(b1-4)GlcNAc(b1-4)GlcNAc
Outline: as §1

[5] = target: GlcNAc(b1-3)Gal(b1-4)GlcNAc(b1-2)Man(a1-3)[GlcNAc(b1-3)Gal(b1-4)GlcNAc(b1-2)Man(a1-6)]Man(b1-4)GlcNAc(b1-4)[Fuc(a1-6)]GlcNAc
Outline: as §1

[6] = target: GlcNAc(b1-3)Gal(b1-4)GlcNAc(b1-2)[GlcNAc(b1-3)Gal(b1-4)GlcNAc(b1-6)]Man(a1-6)[GlcNAc(b1-3)Gal(b1-4)GlcNAc(b1-2)Man(a1-3)]Man(b1-4)GlcNAc(b1-4)GlcNAc
Outline: as §1

[7] = target: GlcNAc(b1-3)Gal(b1-4)GlcNAc(b1-3)Gal(b1-4)GlcNAc
Outline: as §1

[8] = target: GlcNAc(b1-3)Gal(b1-4)GlcNAc(b1-3)Gal(b1-4)GlcNAc(b1-2)Man(a1-3)[GlcNAc(b1-3)Gal(b1-4)GlcNAc(b1-3)Gal(b1-4)GlcNAc(b1-2)Man(a1-6)]Man(b1-4)GlcNAc(b1-4)GlcNAc
Outline: as §1

[9] = target: GlcNAc(b1-3)Gal(b1-4)GlcNAc(b1-3)Gal(b1-4)GlcNAc(b1-2)Man(a1-3)[GlcNAc(b1-3)Gal(b1-4)GlcNAc(b1-3)Gal(b1-4)GlcNAc(b1-2)Man(a1-6)]Man(b1-4)GlcNAc(b1-4)[Fuc(a1-6)]GlcNAc
Outline: as §1

[10] = target: GlcNAc(b1-3)Gal(b1-4)GlcNAc(b1-3)Gal(b1-4)GlcNAc(b1-2)[GlcNAc(b1-3)Gal(b1-4)GlcNAc(b1-3)Gal(b1-4)GlcNAc(b1-6)]Man(a1-6)[GlcNAc(b1-3)Gal(b1-4)GlcNAc(b1-3)Gal(b1-4)GlcNAc(b1-2)Man(a1-3)]Man(b1-4)GlcNAc(b1-4)[Fuc(a1-6)]GlcNAc
Outline: as §1

[11] = target: GlcNAc(b1-3)Gal(b1-4)GlcNAc(b1-3)Gal(b1-4)GlcNAc(b1-3)Gal(b1-4)GlcNAc(b1-2)Man(a1-3)[GlcNAc(b1-3)Gal(b1-4)GlcNAc(b1-3)Gal(b1-4)GlcNAc(b1-3)Gal(b1-4)GlcNAc(b1-2)Man(a1-6)]Man(b1-4)GlcNAc(b1-4)GlcNAc
Outline: as §1

[12] = target: GlcNAc(b1-3)Gal(b1-4)GlcNAc(b1-3)Gal(b1-4)GlcNAc(b1-3)Gal(b1-4)GlcNAc(b1-2)Man(a1-3)[GlcNAc(b1-3)Gal(b1-4)GlcNAc(b1-3)Gal(b1-4)GlcNAc(b1-3)Gal(b1-4)GlcNAc(b1-2)Man(a1-6)]Man(b1-4)GlcNAc(b1-4)[Fuc(a1-6)]GlcNAc
Outline: as §1

[13] = target: GlcNAc(b1-3)Gal(b1-4)GlcNAc(b1-3)Gal(b1-4)GlcNAc(b1-3)Gal(b1-4)GlcNAc(b1-2)[GlcNAc(b1-3)Gal(b1-4)GlcNAc(b1-3)Gal(b1-4)GlcNAc(b1-3)Gal(b1-4)GlcNAc(b1-6)]Man(a1-6)[GlcNAc(b1-3)Gal(b1-4)GlcNAc(b1-3)Gal(b1-4)GlcNAc(b1-3)Gal(b1-4)GlcNAc(b1-2)Man(a1-3)]Man(b1-4)GlcNAc(b1-4)[Fuc(a1-6)]GlcNAc
Outline: as §1

[14] = target: GlcNAc(b1-3)Gal(b1-4)GlcNAc(b1-3)Gal(b1-4)GlcNAc(b1-3)Gal(b1-4)GlcNAc(b1-3)Gal(b1-4)GlcNAc(b1-2)Man(a1-3)[GlcNAc(b1-3)Gal(b1-4)GlcNAc(b1-3)Gal(b1-4)GlcNAc(b1-3)Gal(b1-4)GlcNAc(b1-3)Gal(b1-4)GlcNAc(b1-2)Man(a1-6)]Man(b1-4)GlcNAc(b1-4)GlcNAc
Outline: as §1

[15] = target: GlcNAc(b1-3)Gal(b1-4)GlcNAc(b1-3)Gal(b1-4)GlcNAc(b1-3)Gal(b1-4)GlcNAc(b1-3)Gal(b1-4)GlcNAc(b1-2)Man(a1-3)[GlcNAc(b1-3)Gal(b1-4)GlcNAc(b1-3)Gal(b1-4)GlcNAc(b1-3)Gal(b1-4)GlcNAc(b1-3)Gal(b1-4)GlcNAc(b1-2)Man(a1-6)]Man(b1-4)GlcNAc(b1-4)[Fuc(a1-6)]GlcNAc
Outline: as §1

[16] = target: GlcNAc(b1-3)Gal(b1-4)GlcNAc(b1-3)Gal(b1-4)GlcNAc(b1-3)Gal(b1-4)GlcNAc(b1-3)Gal(b1-4)GlcNAc(b1-2)[GlcNAc(b1-3)Gal(b1-4)GlcNAc(b1-3)Gal(b1-4)GlcNAc(b1-3)Gal(b1-4)GlcNAc(b1-3)Gal(b1-4)GlcNAc(b1-6)]Man(a1-6)[GlcNAc(b1-3)Gal(b1-4)GlcNAc(b1-3)Gal(b1-4)GlcNAc(b1-3)Gal(b1-4)GlcNAc(b1-3)Gal(b1-4)GlcNAc(b1-2)Man(a1-3)]Man(b1-4)GlcNAc(b1-4)[Fuc(a1-6)]GlcNAc
Outline: as §1

[17] = target: GlcNAc(b1-3)Gal(b1-4)GlcNAc(b1-3)Gal(b1-4)GlcNAc(b1-3)GalNAc
Outline: as §1

[18] = target: GlcNAc(b1-3)Gal(b1-4)GlcNAc(b1-3)GalNAc
Outline: as §1

[19] = target: GlcNAc(b1-3)Gal(b1-4)GlcNAc(b1-3)[GlcNAc(b1-3)Gal(b1-4)GlcNAc(b1-3)]GalNAc
Outline: as §1

[20] = target: GlcNAc(b1-3)Gal(b1-4)GlcNAc(b1-6)[Gal(b1-3)]GalNAc
Outline: as §1

[21] = target: GlcNAc(b1-3)Gal(b1-4)GlcNAc(b1-6)[GlcNAc(b1-3)Gal(b1-3)]GalNAc
Outline: as §1

[22] = target: GlcNAc(b1-3)Gal(b1-4)GlcNAc(b1-6)[GlcNAc(b1-3)]Gal(b1-4)GlcNAc
Outline: as §1

[23] = target: GlcNAc(b1-3)GalNAc
Outline: as §1

[24] = target: GlcNAc(b1-3)Man
Outline: as §1

[25] = target: GlcNAc(b1-3)[GlcNAc(b1-4)][GlcNAc(b1-6)]GlcNAc
Outline: as §1

[26] = target: GlcNAc(b1-3)[GlcNAc(b1-6)]Gal(b1-4)GlcNAc
Outline: as §1

[27] = target: GlcNAc(b1-3)[GlcNAc(b1-6)]GalNAc
Outline: as §1

[28] = target: GlcNAc(b1-4)Gal(b1-4)GlcNAc
Outline: as §1

[29] = target: GlcNAc(b1-4)GlcNAc
Outline: as §1

[30] = target: GlcNAc(b1-4)GlcNAc(b1-4)GlcNAc
Outline: as §1

[31] = target: GlcNAc(b1-4)GlcNAc(b1-4)GlcNAc(b1-4)GlcNAc(b1-4)GlcNAc
Outline: as §1

[32] = target: GlcNAc(b1-4)GlcNAc(b1-4)GlcNAc(b1-4)GlcNAc(b1-4)GlcNAc(b1-4)GlcNAc
Outline: as §1

[33] = target: GlcNAc(b1-4)[GlcNAc(b1-6)]GalNAc
Outline: as §1

[34] = target: GlcNAc(b1-6)Gal(b1-4)GlcNAc
Outline: as §1

[35] = target: GlcNAc(b1-6)GalNAc
Outline: as §1

[36] = target: GlcNAc6S(b1-3)Gal(b1-4)GlcNAc
Outline: as §1

[37] = target: Kdn(a2-3)Gal(b1-3)GalNAc
Outline: as §1

[38] = target: Kdn(a2-3)Gal(b1-3)GlcNAc
Outline: as §1

[39] = target: Kdn(a2-3)Gal(b1-4)Glc
Outline: as §1

[40] = target: Kdn(a2-3)Gal(b1-4)GlcNAc
Outline: as §1

[41] = target: Kdn(a2-3)Gal(b1-4)[Fuc(a1-3)]GlcNAc
Outline: as §1

[42] = target: Kdn(a2-6)Gal(b1-4)GlcNAc
Outline: as §1

[43] = target: Man(a1-2)Man(a1-2)Man(a1-3)Man
Outline: as §1

[44] = target: Man(a1-2)Man(a1-2)Man(a1-6)[Man(a1-3)]Man
Outline: as §1

[45] = target: Man(a1-2)Man(a1-3)Man
Outline: as §1

B1: CBP21 (Serratia marcescens), O83009 (protein)
chain: MNKTSRTLLSLGLLSAAMFGVSQQANAHGYVESPASRAYQCKLQLNTQCGSVQYEPQSVEGLKGFPQAGPADGHIASADKSTFFELDQQTPTRWNKLNLKTGPNSFTWKLTARHSTTSWRYFITKPNWDASQPLTRASFDLTPFCQFNDGGAIPAAQVTHQCNIPADRSGSHVILAVWDIADTANAFYQAIDVNLSK
glycan array binding signal (z-score) [1]: 0.04 | glycan array binding signal (z-score) [2]: 0.312 | glycan array binding signal (z-score) [3]: -0.039 | glycan array binding signal (z-score) [4]: 0.081 | glycan array binding signal (z-score) [5]: 0.333 | glycan array binding signal (z-score) [6]: -1.37 | glycan array binding signal (z-score) [7]: -1.78 | glycan array binding signal (z-score) [8]: -0.251 | glycan array binding signal (z-score) [9]: 3.08 | glycan array binding signal (z-score) [10]: -0.108 | glycan array binding signal (z-score) [11]: -0.644 | glycan array binding signal (z-score) [12]: 1.37 | glycan array binding signal (z-score) [13]: -0.325 | glycan array binding signal (z-score) [14]: 0.77 | glycan array binding signal (z-score) [15]: 0.553 | glycan array binding signal (z-score) [16]: 0.87 | glycan array binding signal (z-score) [17]: 0.539 | glycan array binding signal (z-score) [18]: 0.342 | glycan array binding signal (z-score) [19]: 0.901 | glycan array binding signal (z-score) [20]: -0.256 | glycan array binding signal (z-score) [21]: 0.429 | glycan array binding signal (z-score) [22]: -1.31 | glycan array binding signal (z-score) [23]: -1.19 | glycan array binding signal (z-score) [24]: -1.44 | glycan array binding signal (z-score) [25]: -0.033 | glycan array binding signal (z-score) [26]: 0.08 | glycan array binding signal (z-score) [27]: -1.06 | glycan array binding signal (z-score) [28]: 0.145 | glycan array binding signal (z-score) [29]: 0.426 | glycan array binding signal (z-score) [30]: 0.014 | glycan array binding signal (z-score) [31]: 0.729 | glycan array binding signal (z-score) [32]: -0.98 | glycan array binding signal (z-score) [33]: -0.294 | glycan array binding signal (z-score) [34]: -0.448 | glycan array binding signal (z-score) [35]: -0.697 | glycan array binding signal (z-score) [36]: 0.252 | glycan array binding signal (z-score) [37]: -0.446 | glycan array binding signal (z-score) [38]: 0.001 | glycan array binding signal (z-score) [39]: -1.36 | glycan array binding signal (z-score) [40]: -0.42 | glycan array binding signal (z-score) [41]: 1.04 | glycan array binding signal (z-score) [42]: -1.1 | glycan array binding signal (z-score) [43]: -0.437 | glycan array binding signal (z-score) [44]: 0.017 | glycan array binding signal (z-score) [45]: -0.341
